# Assay results reported in PMC7880572 (ACS Chemical Neuroscience, 2021).
# Tests used:
# [1] = PAMPA
# [2] = in vitro; settings: PAMPA, pH 7.4
compound,measurement,setting,value
"COc1cc2c(cc1OC)C(=O)C(CC1CCN(Cc3ccccc3)CC1)C2 (centres unmarked) [donepezil, reference compound]",CNS prediction,[1],CNS+
same,Papp,[2],232 ± 23 nm/s
